Measurements from PMC4766304.
These are yes or no findings as the source states them, for the method shown. Binding seen in cells or lysates may run through a third protein. Some binding calls cover weakened binding; strength is not graded here. Blank lines part the entries; values can stand above or below the molecule they belong to.

Protein sequences, listed by entry. Tags and fused reporters are not part of them. Residues count along the entry.
UniProt Q01097, residues 27-1482: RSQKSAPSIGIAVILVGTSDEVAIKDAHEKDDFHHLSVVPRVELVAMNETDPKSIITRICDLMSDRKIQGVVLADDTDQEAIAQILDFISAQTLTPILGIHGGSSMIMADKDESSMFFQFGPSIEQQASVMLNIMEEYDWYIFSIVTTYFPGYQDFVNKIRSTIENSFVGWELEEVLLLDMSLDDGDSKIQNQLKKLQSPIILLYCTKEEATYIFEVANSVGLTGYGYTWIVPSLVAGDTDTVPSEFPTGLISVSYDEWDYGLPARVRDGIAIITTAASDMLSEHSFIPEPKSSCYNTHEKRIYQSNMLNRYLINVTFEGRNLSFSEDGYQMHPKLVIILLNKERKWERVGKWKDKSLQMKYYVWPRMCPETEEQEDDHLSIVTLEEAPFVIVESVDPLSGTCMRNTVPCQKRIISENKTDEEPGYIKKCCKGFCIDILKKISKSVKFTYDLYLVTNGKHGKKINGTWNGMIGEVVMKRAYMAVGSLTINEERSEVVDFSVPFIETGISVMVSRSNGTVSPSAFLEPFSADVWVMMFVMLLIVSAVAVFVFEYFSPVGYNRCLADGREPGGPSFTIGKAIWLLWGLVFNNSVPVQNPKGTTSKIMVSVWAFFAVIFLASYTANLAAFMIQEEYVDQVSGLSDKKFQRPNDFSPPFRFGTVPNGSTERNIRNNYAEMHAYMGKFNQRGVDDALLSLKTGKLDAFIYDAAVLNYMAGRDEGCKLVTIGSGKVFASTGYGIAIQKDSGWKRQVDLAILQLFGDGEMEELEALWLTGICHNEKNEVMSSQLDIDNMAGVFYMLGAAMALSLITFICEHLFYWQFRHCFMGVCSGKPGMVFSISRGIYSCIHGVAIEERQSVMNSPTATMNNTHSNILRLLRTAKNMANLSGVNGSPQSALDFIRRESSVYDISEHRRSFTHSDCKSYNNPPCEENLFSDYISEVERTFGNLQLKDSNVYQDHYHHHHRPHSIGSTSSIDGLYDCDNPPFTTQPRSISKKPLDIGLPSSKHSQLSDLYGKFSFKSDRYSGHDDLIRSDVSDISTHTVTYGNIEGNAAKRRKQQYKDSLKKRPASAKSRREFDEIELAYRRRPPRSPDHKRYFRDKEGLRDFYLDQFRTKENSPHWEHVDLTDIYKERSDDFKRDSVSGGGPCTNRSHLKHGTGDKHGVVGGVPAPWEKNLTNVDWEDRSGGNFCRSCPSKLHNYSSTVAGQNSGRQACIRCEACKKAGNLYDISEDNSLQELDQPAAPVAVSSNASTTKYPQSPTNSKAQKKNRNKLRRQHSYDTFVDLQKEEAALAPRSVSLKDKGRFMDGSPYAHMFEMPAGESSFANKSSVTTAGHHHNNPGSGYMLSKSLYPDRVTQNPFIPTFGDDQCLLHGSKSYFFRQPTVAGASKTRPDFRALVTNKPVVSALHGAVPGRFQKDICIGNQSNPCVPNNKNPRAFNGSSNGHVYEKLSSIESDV

Assays:
[1] = molecular target: T1, serine racemase (mouse (endogenous in primary cortical cultures from C57BL/6 mice)) (UniProt Q9QZX7); assay: co-IP; 250 μg cortical neuronal lysate (lysis buffer 150 mM NaCl, 1 mM EDTA, 100 mM Tris-HCl, 1% Triton X-100, 1% sodium deoxycholate, 1% SDS, pH 7.4) with 2 μg α-SR, α-NR1 or α-PSD-95 antibody or normal IgG, 4°C, protein A or G agarose, Western blot; also from cultures treated 24 h with vehicle, D-serine (50 μM), D-serine + AP5, D-serine + 7-CK, glycine + lithium
T1 sequence: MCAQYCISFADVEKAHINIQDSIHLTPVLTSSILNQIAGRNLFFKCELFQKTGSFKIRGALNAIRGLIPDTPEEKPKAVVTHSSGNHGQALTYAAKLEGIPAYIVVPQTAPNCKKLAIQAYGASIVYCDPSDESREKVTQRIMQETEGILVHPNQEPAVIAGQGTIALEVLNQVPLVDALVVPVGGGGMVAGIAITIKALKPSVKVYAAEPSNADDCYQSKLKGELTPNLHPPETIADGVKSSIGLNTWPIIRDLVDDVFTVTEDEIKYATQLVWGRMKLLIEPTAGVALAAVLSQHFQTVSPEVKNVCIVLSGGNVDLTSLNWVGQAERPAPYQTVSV

[2] = molecular target: NR1 subunit of NMDARs (mouse (endogenous in primary cortical cultures from C57BL/6 mice)) (UniProt P35438); assay: as above

binding [1]: binds
Molecule: NR2A (from UniProt P35436 23-1464) (receptor)

binding [1]: binds
Molecule: NR2B (from UniProt Q01097 27-1482) (receptor)

binding [2]: binds
B1: serine racemase (enzyme, UniProt Q9QZX7 1-339)
chain: T1 sequence
